No constants are given. Whether binding was seen depends on the method and setting. In cells and extracts the contact can be indirect.
Molecular target: Pyruvate kinase M2 (mouse (endogenous in BMDMs)) (UniProt P52480)
Assay: co-IP; BMDMs stimulated with LPS for 1 or 2 hours, lysed in modified RIPA buffer; supernatant incubated with anti-PKM2, anti-Pyk2 or control IgG antibody, Protein A agarose beads, western blot

Amino acid sequences for entries named in this document (tags omitted).
UniProt P52480: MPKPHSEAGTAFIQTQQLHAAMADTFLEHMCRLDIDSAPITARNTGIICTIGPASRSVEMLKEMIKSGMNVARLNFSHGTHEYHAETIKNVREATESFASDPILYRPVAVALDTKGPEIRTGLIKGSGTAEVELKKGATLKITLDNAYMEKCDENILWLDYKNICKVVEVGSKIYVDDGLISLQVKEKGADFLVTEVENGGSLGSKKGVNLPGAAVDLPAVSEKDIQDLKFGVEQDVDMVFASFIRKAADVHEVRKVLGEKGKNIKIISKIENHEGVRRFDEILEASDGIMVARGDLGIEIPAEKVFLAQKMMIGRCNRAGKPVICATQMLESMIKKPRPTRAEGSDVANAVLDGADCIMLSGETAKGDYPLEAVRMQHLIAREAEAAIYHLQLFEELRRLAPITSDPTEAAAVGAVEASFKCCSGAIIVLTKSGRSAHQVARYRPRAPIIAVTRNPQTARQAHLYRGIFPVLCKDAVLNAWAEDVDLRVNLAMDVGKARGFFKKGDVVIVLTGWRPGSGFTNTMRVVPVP
UniProt Q9QVP9: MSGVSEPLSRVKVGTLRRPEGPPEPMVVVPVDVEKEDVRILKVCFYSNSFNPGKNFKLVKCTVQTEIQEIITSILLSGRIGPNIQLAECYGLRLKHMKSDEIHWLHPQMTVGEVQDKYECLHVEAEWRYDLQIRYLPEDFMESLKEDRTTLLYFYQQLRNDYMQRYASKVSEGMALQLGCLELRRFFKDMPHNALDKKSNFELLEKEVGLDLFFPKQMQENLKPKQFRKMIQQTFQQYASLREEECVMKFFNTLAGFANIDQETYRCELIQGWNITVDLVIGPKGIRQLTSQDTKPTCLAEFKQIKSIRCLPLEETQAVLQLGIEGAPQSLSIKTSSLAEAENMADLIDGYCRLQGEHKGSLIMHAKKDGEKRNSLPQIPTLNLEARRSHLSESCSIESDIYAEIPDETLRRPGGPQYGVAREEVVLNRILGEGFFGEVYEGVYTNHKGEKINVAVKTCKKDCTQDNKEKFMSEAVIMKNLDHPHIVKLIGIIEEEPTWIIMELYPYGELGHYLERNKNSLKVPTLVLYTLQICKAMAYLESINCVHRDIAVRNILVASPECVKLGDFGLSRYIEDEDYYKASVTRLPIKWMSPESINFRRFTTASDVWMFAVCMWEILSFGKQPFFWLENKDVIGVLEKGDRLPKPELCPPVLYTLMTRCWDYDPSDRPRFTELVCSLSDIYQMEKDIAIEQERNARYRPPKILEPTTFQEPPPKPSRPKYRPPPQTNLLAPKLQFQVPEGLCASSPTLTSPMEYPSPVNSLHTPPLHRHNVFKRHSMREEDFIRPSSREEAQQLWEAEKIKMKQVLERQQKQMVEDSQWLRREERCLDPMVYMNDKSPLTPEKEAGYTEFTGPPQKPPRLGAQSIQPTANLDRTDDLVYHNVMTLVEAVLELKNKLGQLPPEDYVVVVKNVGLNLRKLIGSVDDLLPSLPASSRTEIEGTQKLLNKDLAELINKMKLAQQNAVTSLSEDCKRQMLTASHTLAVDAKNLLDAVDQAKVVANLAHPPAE

Substance: proline-rich tyrosine kinase 2 (from UniProt Q9QVP9 1-1009) (enzyme)
- binding: no binding
